Negatives hold for the conditions tested. At least one verdict rests on a figure or table, not on a statement of the authors. For part of these data: Where a protein sequence is shown, tags need not be part of it.
Tests used:
Assay in all cases: EMSA
Details in all cases: EMSA: 20 ng GST-fusion protein, 20 mM HEPES pH 7.8, 45 mM KCl, 10 mM NaCl, 1 mM EDTA, 1 mM DTT, 10% glycerol, 0.2 ug/uL BSA, 0.1% NP-40, 50 ng poly-dIdC; recombinant protein; protein details: GST (N-terminal, pGEX-6P-1); label: 32P
[1] = target: T1, Brn2 DNA-binding domain (BD-Brn2) (Mus musculus (B6)) (UniProt P31360)
T1 sequence (looked up, limits assumed): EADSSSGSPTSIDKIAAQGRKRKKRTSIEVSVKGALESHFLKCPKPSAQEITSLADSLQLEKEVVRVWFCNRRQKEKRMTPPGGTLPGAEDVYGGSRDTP

Protein sequences, listed by entry. Tags and fused reporters are not part of them. Residues count along the entry.
UniProt P63015, 190-289: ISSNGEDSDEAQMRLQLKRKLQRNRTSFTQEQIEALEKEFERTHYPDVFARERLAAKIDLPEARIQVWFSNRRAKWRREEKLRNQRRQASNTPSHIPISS

[2] = target: T2, Oct6 DNA-binding domain (BD-Oct6) (Mus musculus (B6)) (UniProt P21952)
T2 sequence (looked up, limits assumed): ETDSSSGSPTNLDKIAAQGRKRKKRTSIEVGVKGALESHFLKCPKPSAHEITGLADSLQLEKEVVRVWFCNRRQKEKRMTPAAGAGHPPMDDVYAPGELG

[3] = target: Pax6 DNA-binding domain (BD-Pax6) (Mus musculus (B6)) (UniProt P63015)

Measured: binding result

GGGAGTTGAGGGGACTTTCCCAGGC (double strand) [NF-kB consensus probe]
no binding: all assays above

— PMC3713010
